For the experiment, the system named is Staphylococcus aureus ATCC 25923. As to the kind of experiment: Antimicrobial assay (MIC, two-fold dilution). It counts as cell-based. As to conditions: ATCC25923, 14 h. As for the experimental part: The antimicrobial activity of FM-CATH was measured using two-fold dilution method as reported previously by us ([Ye et al., 2020]). Microorganisms bought from Guangdong Institute of Microbiology were cultured in Muller-Hinton (MH) broth at 37°C to exponential phase and subsequently diluted with fresh MH broth to reach 10^6 CFU/ml of density. An equal volume of microbial inoculums in 96-well plates was incubated with different concentrations of FM-CATH at 37°C for 14 h. The absorbance at 600 nm was measured by a microplate spectrophotometer (Infinite M1000 Pro, Tecan Company, Switzerland) to calculate the minimal inhibitory concentration (MIC) values. […] Ampicillin and polymyxin B were used as positive controls.

Structures are written as SMILES. Values after ≈ are worked out from the molar mass of the structure shown.

Broadly, the MIC is the smallest concentration in the dilution series that meets the test's criterion for growth inhibition. Low readings indicate a more susceptible organism, high ones a less susceptible organism. `CC1(C)S[C@@H]2[C@H](NC(=O)[C@H](N)c3ccccc3)C(=O)N2[C@H]1C(=O)O` [Ampicillin] showed an MIC of 25 µM (≈ 8.74 µg/mL).

The values are drawn from publication PMC8415707 (Frontiers in Pharmacology, 2021).
